# Results: US10174380B2, “Methods for predicting multiple myeloma treatment response” (INSERM (INSTITUT NATIONAL DE LA SANTE ET DE LA RECHERCHE …, priority 2012, dated 2019)
# pIC50: −log10 of the molar value.
# What was measured:
# [1] = system: 5 HMCLs with low HA Score; assay: Growth assay for myeloma cells (Cell Titer Glo, intracellular ATP), HMCLs with low HA Score; format: cell-based; conditions: Homo sapiens, 96 h, 4 days culture, IL-6 2 ng/ml, read-out: median IC50
# Method: (§1) Data are mean values plus or minus standard deviation (SD) of 5 experiments determined on sextuplet culture wells.
# (§2) HMCLs were cultured for 4 days in 96-well flat-bottom microtiter plates in RPMI 1640 medium, 10% FCS, 2 ng/ml IL-6 culture medium (control), with graded Panobinostat (A), VPA […] or SAHA (C) concentrations. Data are mean values plus or minus standard deviation (SD) of 5 experiments determined on sextuplet culture wells.
# (§3) Cell growth was evaluated by quantifying intracellular ATP amount with a Cell Titer Glo Luminescent Assay (Promega, Madison, Wis.) with a Centro LB 960 luminometer (Berthold Technologies, Bad Wildbad, Germany).
# (§4) The inventors sought to determine whether HA Score could predict for the sensitivity of 10 HMCLs to HDAC inhibitor.
# (§5) The inventors sought to determine whether HA Score could predict for the sensitivity of myeloma cells to clinical grade HDAC inhibitors {Neri, 2012 #3317}.
# [2] = system: 5 HMCLs with the highest HA Score; assay: Growth assay for myeloma cells (Cell Titer Glo, intracellular ATP), HMCLs with high HA Score; format: cell-based; conditions: Homo sapiens, 96 h, 4 days culture, IL-6 2 ng/ml, read-out: median IC50
# Method: as §1, §2, §3, §4, §5
structure (smiles),measurement,setting,value
"O=C(CCCCCCC(=O)Nc1ccccc1)NO [Vorinostat, vorinostat]",pIC50,[1],6.05
same,pIC50,[2],6.28
